# Assay results as given in the supplement of paper PMC12889115.
# The other results are listed elsewhere or left out. Values are raw readings; no control value is given beside them.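 Primary screen: polymyxin B was added at a level permeabilizing Salmonella outer membranes while sparing inner membranes. DMSO wells, both with and without polymyxin B, established maximum growth. Plate-to-plate variation meant each plate was ranked on its own, and the lowest-OD600 compounds were selected as hits.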
# Tested on: Salmonella enterica serovar Typhimurium SL1344
# Experiment: bacterial growth OD600 after 18 h with compound and polymyxin B; higher = more bacterial growth (less inhibition)
# Details: 50 µM, Mueller-Hinton broth
SMILES,bacterial growth OD600 (polymyxin B 1 µg/mL),bacterial growth OD600 (polymyxin B 0.75 µg/mL)
COc1cc(OC)cc(C(=O)NCC2CCCN(C(=O)CC3=CCCCC3)C2)c1 (stereo not given),0.964,
Cc1cc2nc(N3CCC(C(=O)NCC4(c5ccccc5)CCOCC4)CC3)nc(C)c2cc1C,,0.879
O=C(Cn1nnnc1CN1CCOCC1)N1CCN(c2ccccc2)C(=O)C1,,0.845
COc1ccc(CC(=O)N(C)CC2CCCN(CCc3ccccc3F)C2)cc1 (stereo not given),1,
O=C(c1ccccc1)N1CCC(C2(c3ccccn3)NC(=O)N(CCc3cccs3)C2=O)CC1 (stereo not given),,0.786
O=C(NCC1CCCN(C(=O)CCCn2cncn2)C1)c1ccc(-c2ccccc2)cc1 (stereo not given),0.938,
O=C(CCCc1ccccc1)Nc1ccnn1C1CCN(C(=O)C2CCCC2)CC1,0.68,
CCn1nc(C)c(CN2CCCC(CCC(=O)Nc3ccccc3F)C2)c1C (stereo not given),0.893,
CCC(C)Nc1ccc(C(=O)N2CCC(Oc3cccnc3)CC2)cn1 (stereo not given),1.01,
COCCNC(=O)c1ccc(OC)cc1OC1CCN(CCc2ccccc2)CC1,1.22,
CC(C)(C)NC(=O)NC1CC(=O)N(Cc2cccc3ccccc23)C1 (stereo not given),1.13,
COC(=O)[C@@H](NC(=O)c1coc(Cn2cnc3ccccc32)n1)c1ccccc1,0.933,
Cc1c(C(=O)N2CCN(C(=O)c3ccco3)CC2)cnn1-c1ncc2c(n1)-c1ccccc1CCC2,,0.803
c1ccc(-c2ncc3c(n2)CCCC3NC2CCC2)cc1 (stereo not given),0.976,
O=C(CCc1cccnc1)N1CCC(C2CCN(Cc3cccnc3)CC2)C1 (stereo not given),,0.854
CC(C)c1nc(CNC(=O)c2ccc(OC3CCN(C(=O)C4CC4)CC3)cc2)cs1,0.854,
O=C(NCc1ccc2c(c1)OCO2)c1ccc(N2CCC(NCCCc3cccnc3)CC2)cc1,,0.821
CCOc1cccc(CN2CCC(Oc3ccccc3C(=O)N3CCCCC3)CC2)c1,0.48,
CO[C@H]1[C@H](NC(=O)c2ccccn2)c2ccccc2C12CCN(C(=O)c1cc3ccccc3n1C)CC2,,0.004
CCC1(CC)CC1C(=O)N1CCc2c(C(=O)NCc3ccc4c(c3)OCO4)c(OC)cc(=O)n2CC1 (stereo not given),,0.807
COc1cccc(-c2ccc(NC(=O)C3CCCN(C(=O)C4CCC4)C3)cc2)c1 (stereo not given),0.163,
c1ccc2c(c1)CC(NCc1ccc(-n3cccn3)cc1)CO2 (stereo not given),,0.534
O=C(N[C@@H]1c2ccccc2C2(CCN(C(=O)/C=C/c3ccc(F)cc3)CC2)[C@H]1O)c1ccccc1,,0.501
CC(C)N(Cc1cn(Cc2ccccc2)nc1-c1cc2ccccc2o1)CC1CCC(=O)N1 (stereo not given),0.52,
CCOc1ccc2nc(N3CCCN(Cc4c(C)nn(CC)c4C)CC3)nc(C)c2c1,,0.761
CC(C)CN1CCC(C2CCN(Cc3cccn3-c3nccs3)C2)CC1 (stereo not given),,0.868
Cc1c[nH]c(CN(C)C(=O)c2ccc(OC3CCN(S(C)(=O)=O)CC3)c(Cl)c2)n1,0.955,
CC#CCN1C(=O)NC(CCc2ccccc2)(C2CCN(C(=O)C#CC)CC2)C1=O (stereo not given),,0.873
Clc1ccccc1Cc1noc(CN2CCN(c3cnccn3)CC2)n1,0.991,
CCn1ccnc1CN1CCCC(N2CCN(c3ccccc3C)CC2)C1 (stereo not given),0.916,

# Given with bars between the fields: 2 of the compounds above.
SMILES | bacterial growth OD600 (polymyxin B 1 µg/mL) | bacterial growth OD600 (polymyxin B 0.75 µg/mL)
Cc1c(C(=O)N2CCN(C(=O)c3ccco3)CC2)cnn1-c1ncc2c(n1)-c1ccccc1CCC2 |  | 0.803
CC(C)CN1CCC(C2CCN(Cc3cccn3-c3nccs3)C2)CC1 (stereo not given) |  | 0.868
